In PMC12499470:
No constants are given. Whether binding was seen depends on the method and setting. In cells and extracts the contact can be indirect. Some results given as binding are weak or reduced against the parent protein; the word gives no strength. For some of these results: Tags and fused reporters may be left off the sequences shown. One block for each binder: values may come before it.

Columns and labels:
[1] = biological target: T1, HSL-FLAG (hormone-sensitive lipase, FLAG-tagged) (human) (UniProt Q05469); experiment: co-IP; HEK293T cells co-transfected with HA- and FLAG-tagged constructs, lysates after 48 h, immunoprecipitation with EZview Red anti-FLAG M2 affinity gel, Western blot
T1 sequence: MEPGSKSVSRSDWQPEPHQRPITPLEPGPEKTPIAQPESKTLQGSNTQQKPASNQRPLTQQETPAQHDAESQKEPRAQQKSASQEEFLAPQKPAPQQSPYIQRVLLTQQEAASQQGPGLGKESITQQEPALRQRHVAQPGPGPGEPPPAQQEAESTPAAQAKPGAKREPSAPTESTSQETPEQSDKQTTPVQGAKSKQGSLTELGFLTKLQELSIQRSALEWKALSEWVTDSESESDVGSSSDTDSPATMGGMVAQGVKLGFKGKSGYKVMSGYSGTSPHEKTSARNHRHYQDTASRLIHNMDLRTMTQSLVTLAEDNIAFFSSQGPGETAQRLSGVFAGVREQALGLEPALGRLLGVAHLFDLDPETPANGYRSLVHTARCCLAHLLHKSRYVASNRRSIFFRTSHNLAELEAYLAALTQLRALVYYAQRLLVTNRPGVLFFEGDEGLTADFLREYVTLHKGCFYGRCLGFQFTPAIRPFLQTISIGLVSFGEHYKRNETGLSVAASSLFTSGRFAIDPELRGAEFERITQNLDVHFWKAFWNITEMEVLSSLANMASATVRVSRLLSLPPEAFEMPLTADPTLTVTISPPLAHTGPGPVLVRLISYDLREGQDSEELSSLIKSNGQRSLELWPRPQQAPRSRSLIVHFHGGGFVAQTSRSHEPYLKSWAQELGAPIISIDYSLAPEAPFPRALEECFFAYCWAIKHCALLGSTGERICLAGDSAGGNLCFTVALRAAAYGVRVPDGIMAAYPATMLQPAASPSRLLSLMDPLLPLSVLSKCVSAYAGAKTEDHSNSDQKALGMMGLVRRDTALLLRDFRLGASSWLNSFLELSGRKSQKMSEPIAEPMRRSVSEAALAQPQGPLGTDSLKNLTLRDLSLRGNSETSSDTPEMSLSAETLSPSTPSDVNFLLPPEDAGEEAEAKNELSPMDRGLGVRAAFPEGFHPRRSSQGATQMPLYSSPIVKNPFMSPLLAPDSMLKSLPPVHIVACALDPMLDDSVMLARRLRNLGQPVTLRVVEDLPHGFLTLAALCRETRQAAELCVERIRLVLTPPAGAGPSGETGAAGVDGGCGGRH

[2] = biological target: T2, PKGβ-FLAG (protein kinase cGMP-dependent 1, isoform β, FLAG-tagged) (UniProt Q13976); experiment: as above
T2 sequence: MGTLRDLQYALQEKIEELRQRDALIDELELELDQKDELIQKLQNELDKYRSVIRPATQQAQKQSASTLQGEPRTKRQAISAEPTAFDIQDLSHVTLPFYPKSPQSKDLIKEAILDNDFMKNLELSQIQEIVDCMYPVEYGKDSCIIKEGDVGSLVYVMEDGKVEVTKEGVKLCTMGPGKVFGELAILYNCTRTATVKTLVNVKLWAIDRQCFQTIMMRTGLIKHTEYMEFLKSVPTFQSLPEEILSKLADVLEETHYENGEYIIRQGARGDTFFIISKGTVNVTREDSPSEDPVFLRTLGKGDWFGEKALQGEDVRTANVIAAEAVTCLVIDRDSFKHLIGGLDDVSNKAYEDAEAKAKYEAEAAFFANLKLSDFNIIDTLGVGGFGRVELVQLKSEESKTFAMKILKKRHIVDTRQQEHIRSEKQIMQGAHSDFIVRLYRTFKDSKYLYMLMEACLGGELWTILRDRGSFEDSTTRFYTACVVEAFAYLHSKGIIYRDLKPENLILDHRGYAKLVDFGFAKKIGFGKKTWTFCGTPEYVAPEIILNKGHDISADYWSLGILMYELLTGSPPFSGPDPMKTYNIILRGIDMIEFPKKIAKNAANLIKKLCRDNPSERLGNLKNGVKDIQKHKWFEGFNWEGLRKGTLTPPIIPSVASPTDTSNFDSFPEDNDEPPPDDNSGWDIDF

[3] = biological target: T3, PKGα-FLAG (protein kinase cGMP-dependent 1, isoform α, FLAG-tagged) (UniProt Q13976); experiment: as above
T3 sequence: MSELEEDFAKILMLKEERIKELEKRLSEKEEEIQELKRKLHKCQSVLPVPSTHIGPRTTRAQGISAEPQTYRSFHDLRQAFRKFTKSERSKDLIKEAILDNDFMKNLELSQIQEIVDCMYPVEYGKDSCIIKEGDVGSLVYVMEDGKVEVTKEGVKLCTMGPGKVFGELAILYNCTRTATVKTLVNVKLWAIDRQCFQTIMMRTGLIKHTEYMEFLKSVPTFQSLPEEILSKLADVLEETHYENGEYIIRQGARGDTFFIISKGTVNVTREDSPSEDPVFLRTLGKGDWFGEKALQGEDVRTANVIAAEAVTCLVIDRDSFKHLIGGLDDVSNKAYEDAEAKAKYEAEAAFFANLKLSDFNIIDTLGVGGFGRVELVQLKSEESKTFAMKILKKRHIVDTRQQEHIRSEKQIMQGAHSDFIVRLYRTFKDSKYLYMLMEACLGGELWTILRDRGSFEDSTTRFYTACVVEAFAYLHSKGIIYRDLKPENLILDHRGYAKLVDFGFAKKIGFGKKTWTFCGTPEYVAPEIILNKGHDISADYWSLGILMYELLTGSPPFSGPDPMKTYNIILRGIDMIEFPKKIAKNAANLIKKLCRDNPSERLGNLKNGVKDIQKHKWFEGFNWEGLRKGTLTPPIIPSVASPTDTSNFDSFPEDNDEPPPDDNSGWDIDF

[4] = biological target: T4, endogenous HSL (hormone-sensitive lipase) (human (endogenous in MGC803 and MKN1)) (UniProt Q05469); experiment: co-IP; endogenous proteins; MKN1 and MGC803 cells treated with cGMP (100 µM) for 15 min before harvest; immunoprecipitation with target antibody
T4 sequence: T1 sequence

- binding [1]: binds
B1: PKGβ-HA (protein kinase cGMP-dependent 1, isoform β, HA-tagged) (enzyme, UniProt Q13976-2 1-686)
chain: T2 sequence

- binding [2]: binds
- binding [3]: binds
B2: HSL-HA (hormone-sensitive lipase, HA-tagged) (enzyme, UniProt Q05469 1-1076)
chain: T1 sequence

- binding [4]: binds
B3: endogenous PKGα (enzyme, UniProt Q13976 1-671)
chain: T3 sequence
